Publication PMC2774482 (Basic & Clinical Pharmacology & Toxicology, 2009)
Marks after values point to notes of the source that are not given here.

How the values were obtained:
Caco-2 cell monolayers = assay: Bidirectional transepithelial transport across Caco-2 cell monolayers; format: in vitro ADME, human
serotonin reuptake = serotonin reuptake inhibition; cited from earlier work
norepinephrine reuptake = norepinephrine reuptake inhibition; cited from earlier work
[1] = 1 µM, pH 6.8/7.4, + 10 µM Cyclosporine A
[2] = 1 µM, pH 6.8/7.4, no inhibitor, TR = Papp(B–A)/Papp(A–B)
[3] = 1 µM, pH 7.4/7.4, + 4 µM GF120918
[4] = 1 µM, pH 7.4/7.4, + 10 µM Cyclosporine A
[5] = 1 µM, pH 7.4/7.4, no inhibitor, TR = Papp(B–A)/Papp(A–B)
[6] = 1 µM, pH 7.4/7.4, no inhibitor, control of GF120918 experiment (Table 2)
[7] = 10 µM, pH 6.8/7.4, + 10 µM Cyclosporine A
[8] = 10 µM, pH 6.8/7.4, no inhibitor
[9] = 10 µM, pH 7.4/7.4, + 10 µM Cyclosporine A
[10] = 10 µM, pH 7.4/7.4, no inhibitor
[11] = 50 µM, pH 6.8/7.4, + 10 µM Cyclosporine A
[12] = 50 µM, pH 6.8/7.4, no inhibitor
[13] = 50 µM, pH 7.4/7.4, + 10 µM Cyclosporine A
[14] = 50 µM, pH 7.4/7.4, no inhibitor
[15] = 100 µM, pH 6.8/7.4, + 10 µM Cyclosporine A
[16] = 100 µM, pH 6.8/7.4, no inhibitor
[17] = 100 µM, pH 7.4/7.4, + 10 µM Cyclosporine A
[18] = 100 µM, pH 7.4/7.4, no inhibitor

Compound | Efflux ratio (TR) (Caco-2 cell monolayers; [1]) | Efflux ratio (TR) (Caco-2 cell monolayers; [2]) | Efflux ratio (TR) (Caco-2 cell monolayers; [3]) | Efflux ratio (TR) (Caco-2 cell monolayers; [4]) | Efflux ratio (TR) (Caco-2 cell monolayers; [5]) | Efflux ratio (TR) (Caco-2 cell monolayers; [6]) | Efflux ratio (TR) (Caco-2 cell monolayers; [7]) | Efflux ratio (TR) (Caco-2 cell monolayers; [8]) | Efflux ratio (TR) (Caco-2 cell monolayers; [9]) | Efflux ratio (TR) (Caco-2 cell monolayers; [10]) | Efflux ratio (TR) (Caco-2 cell monolayers; [11]) | Efflux ratio (TR) (Caco-2 cell monolayers; [12]) | Efflux ratio (TR) (Caco-2 cell monolayers; [13]) | Efflux ratio (TR) (Caco-2 cell monolayers; [14]) | Efflux ratio (TR) (Caco-2 cell monolayers; [15]) | Efflux ratio (TR) (Caco-2 cell monolayers; [16]) | Efflux ratio (TR) (Caco-2 cell monolayers; [17]) | Efflux ratio (TR) (Caco-2 cell monolayers; [18]) | Ki (serotonin reuptake) | Ki (norepinephrine reuptake)
COc1cccc(C2(O)CCCCC2CN(C)C)c1 (single isomer, unassigned; (+)) [(+)-TMD, (+)-tramadol] | 2.1 | 2.2 (efflux) | 1.3 | 1.3 | 1.1 (no net flux) ^‡ | 1.2 (no net flux) | 3.0 ^§ | 2.4 (efflux) | 1.3 | 1.1 (no net flux) ^‡ | 3.3 ^§ | 2.4 (efflux) | 1.3 ^§ | 1.2 (no net flux) ^‡ | 2.8 | 2.6 (efflux) | 1.7 | 1.6 (no net flux) ^‡ | 530 nM | 
COc1cccc(C2(O)CCCCC2CN(C)C)c1 (single isomer, unassigned; (-)) [(−)-TMD, (−)-tramadol] | 1.9 | 1.9 (efflux) | 1.3 | 1.1 ^§ | 0.9 (no net flux) ^‡ | 1.1 (no net flux) | 2.8 ^§ | 2.4 (efflux) | 1.3 ^§ | 1.1 (no net flux) ^‡ | 3.3 ^§ | 2.4 (efflux) | 1.3 | 1.1 (no net flux) ^‡ | 2.8 | 2.7 (efflux) | 1.8 | 1.5 (no net flux) ^‡ |  | 430 nM
